# System: patients suspected of having stunned or hibernating myocardium
# Test: Improvement of ejection fraction during dobutamine echocardiography for prediction of improvement in ejection fraction after CABG
# Type: in vivo
# Settings: dobutamine plus D-Ribose, prediction of EF improvement following CABG, 11 patients
# Procedure: After completion of the baseline echocardiography, intravenous infusion of test article (D-Ribose or placebo) at a set infusion, along with an infusion of 5% glucose in water (D5W) at 100 ml/hour as a maintenance fluid was initiated. D-Ribose, 10% in water at 180 mg/kg/hour, or placebo D5W at 1.8 mg/kg/hour, were given as sterile, pyrogen-free solutions. After the test article had been administered for one, two, three or four hours, a resting echocardiogram was obtained. At completion of this rest period, dobutamine was infused. Dobutamine hydrochloride (Dobutrex® solution, Eli Lilly, Indianapolis ) was mixed in D5W (5% dextrose in water), giving a concentration of 1.0 mg/ml. During echocardiography, dobutamine was administered at an initial dose of 5 μg/kg/minute for three minutes. The dose of dobutamine was then increased to 10 μg/kg/min and infused for three minutes. Echocardiograms were obtained at the low dose stages and at peak stage. Every three minutes the concentration of dobutamine was increased by 10 μg/kg/minute increments until the standard endpoint was reached. The standard endpoint was set to be a greater than 2 mm ST-segment depression on ECG; significant side effects or arrhythmias; achievement of 85% of the age-predicted maximal heart rate; a systolic blood pressure >250 mm Hg, a significant fall in systolic blood pressure or a maximal dose of 50 μg/kg/minute. The Day 1 and Day 2 dobutamine echocardiograms comprised of resting, 5, 10 μg/kg/minute, and peak dose images were stored and reviewed using the procedures and equipment previously described for the AM and PM images, except that side by side comparison was not performed. Using the previously described scoring system, regional wall motion was graded by consensus by two blinded investigators. Hyperdynamic wall motion during dobutamine infusion was scored as one normal wall motion. A one grade improvement of wall motion during dobutamine infusion was considered significant. Global wall motion scores were derived for each stage of the dobutamine echocardiogram. During low-dose dobutamine infusion (5μ/kg/minute), wall motion improved in more segments on D-Ribose than placebo (65 segments v. 48 segments ). Eleven patients subsequently underwent CABG after completion of Study Day 2. At least one echocardiogram was obtained postoperatively in each of these subjects. Regional wall motion was compared between the follow-up echocardiogram and the Day 1 AM study by two blinded investigators. A single, blinded investigator made determinations of ejection fraction on the AM, PM, dobutamine and any post-revascularization echocardiograms using the four-chamber view and the Simpson's method. Table II summarizes the sensitivity, specificity and accuracy of improvemnent of ejection fraction during dobutamine plus D-Ribose versus dobutamine plus placebo for prediction of improvement in ejection fraction after CABG. Significant improvement is defined as Post-bypass ejection fraction increase ≧10% for analysis 2. The accuracy of dobutamine plus D-Ribose in identifying patients with an increase in ejection fraction (EF) following surgery of greater than or equal to 10% is shown in Table II. […] Eight of the nine, or 89% had been diagnosed using ribose. […] The accuracy of a greater than ten percent improvement in EF after bypass was 73% for dobutamine plus D-Ribose compared to 27% for dobutamine plus placebo. Therefore, the addition of D-Ribose to dobutamine for identification of hibernating or stunned myocardium confers an advantage over the dobutamine alone.
smiles,measurement,setting,value
O=C[C@H](O)[C@H](O)[C@H](O)CO [D-Ribose],"Accuracy, Analysis 1: EF Increase ≧ 5%",,82 (9/11) %
same,"Accuracy, Analysis 2: EF Increase ≧ 10%",,73%
same,"Sensitivity, Analysis 2: EF Increase ≧ 10%",,57% (4/7)
same,"Specificity, Analysis 1: EF Increase ≧ 5%",,50 (1/2) %
same,"Specificity, Analysis 2: EF Increase ≧ 10%",,100 (4/4) %
same,"Accuracy, Analysis 2: EF Increase ≧ 10%",listed as Ribose,73 (8/11) %
same,"Sensitivity, Analysis 1: EF Increase ≧ 5%",listed as Ribose,89% (8/9)
same,"Sensitivity, Analysis 1: EF Increase ≧ 5%",listed as ribose,89%

# Source: US6339716B1, “Method for determining viability of a myocardial segment” (Bioenergy Inc., priority 1999, dated 2002)
